Measured data: PubChem BioAssay AID1224826 (NIAID, 2016)
Test: 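Regulators of Tlr4 signalling leading to Tnf-alpha expression in macrophages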 (primary screen). System: RAW264.7 G9 macrophages from mouse bearing reporters for p65 (GFP) and the Tnf promoter (mCherry). Reagent: siRNA pool against mouse genes, 100 nM. Duration: 16 h of LPS stimulation, after 2 days of siRNA transfection. Challenge: bacterial lipopolysaccharide (Salmonella minnesota R595), 10 ng/ml. Detection: 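Nuclear mCherry signal of the Tnf promoter reporter measured by imaging after background removal, scaled to each plate median and turned into robust z-scores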. Reading the numbers: Tnf reporter robust z-score: higher = stronger Tnf promoter reporter signal after LPS. Call rule: 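a well counts as active at a score of -1.3 or below (Tlr4 knock-down control median) or above 3 (raised signal); controls and wells holding fewer than 50 cells are excluded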. Calls: active = Tnf reporter clearly lowered or raised; inactive = no clear change in Tnf reporter.
In all, the deposit lists about 17,000 reagents; shown is an unselected part. About 1,110 of all reagents (6.6%) count as active. 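Active means lowered or raised reporter signal; replicate intensities are raw and not normalised per plate.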 The numbers tell different reagents against one gene apart. Not all columns of the deposit are shown.

2810025M15Rik — Tnf reporter robust z-score: 0.75; fewer than 50 cells in well: enough cells in well; activity call: inactive
Cxcr3 — Tnf reporter robust z-score: -0.42; fewer than 50 cells in well: enough cells in well; activity call: inactive
Plcd1 — Tnf reporter robust z-score: 0.91; fewer than 50 cells in well: enough cells in well; activity call: inactive
Or5b123 — Tnf reporter robust z-score: 0.5; fewer than 50 cells in well: enough cells in well; activity call: inactive
Mgst3 — Tnf reporter robust z-score: -1.06; fewer than 50 cells in well: enough cells in well; activity call: inactive
Zfp672 #1 — Tnf reporter robust z-score: -0.51; fewer than 50 cells in well: enough cells in well; activity call: inactive
Zfp672 #2 — fewer than 50 cells in well: fewer than 50 cells per well; well left out of calls; activity call: inactive
Clcnka — Tnf reporter robust z-score: -0.87; fewer than 50 cells in well: enough cells in well; activity call: inactive
Ppp2r2c — fewer than 50 cells in well: fewer than 50 cells per well; well left out of calls; activity call: inactive

The list goes on; the last 2 above are carried over.
Clcnka — Tnf reporter robust z-score: -0.87; fewer than 50 cells in well: enough cells in well; activity call: inactive
Ppp2r2c — fewer than 50 cells in well: fewer than 50 cells per well; well left out of calls; activity call: inactive
Ptgir — Tnf reporter robust z-score: -0.71; fewer than 50 cells in well: enough cells in well; activity call: inactive
Sel1l3 — fewer than 50 cells in well: fewer than 50 cells per well; well left out of calls; activity call: inactive
Ftmt — fewer than 50 cells in well: fewer than 50 cells per well; well left out of calls; activity call: inactive
Grb2 — Tnf reporter robust z-score: -1.51; fewer than 50 cells in well: enough cells in well; activity call: active
Zfp93 — Tnf reporter robust z-score: -0.79; fewer than 50 cells in well: enough cells in well; activity call: inactive
Or9i1 — Tnf reporter robust z-score: -1.18; fewer than 50 cells in well: enough cells in well; activity call: inactive
Colec12 — Tnf reporter robust z-score: 1.67; fewer than 50 cells in well: enough cells in well; activity call: inactive
Syt3 — Tnf reporter robust z-score: 0.28; fewer than 50 cells in well: enough cells in well; activity call: inactive
Ms4a6b — Tnf reporter robust z-score: -0.03; fewer than 50 cells in well: enough cells in well; activity call: inactive
Camk1d — Tnf reporter robust z-score: 3.18; fewer than 50 cells in well: enough cells in well; activity call: active
Il9 — Tnf reporter robust z-score: -0.36; fewer than 50 cells in well: enough cells in well; activity call: inactive
Ccl27a — Tnf reporter robust z-score: -0.05; fewer than 50 cells in well: enough cells in well; activity call: inactive
Terf1 — Tnf reporter robust z-score: -0.62; fewer than 50 cells in well: enough cells in well; activity call: inactive
Or8g33 — Tnf reporter robust z-score: 0.78; fewer than 50 cells in well: enough cells in well; activity call: inactive
1700029H14Rik — Tnf reporter robust z-score: 2.28; fewer than 50 cells in well: enough cells in well; activity call: inactive
Zic3 — Tnf reporter robust z-score: -0.87; fewer than 50 cells in well: enough cells in well; activity call: inactive
Platr26 — Tnf reporter robust z-score: -0.78; fewer than 50 cells in well: enough cells in well; activity call: inactive
Gdap10 — Tnf reporter robust z-score: 0.42; fewer than 50 cells in well: enough cells in well; activity call: inactive
